Percent effect of library compounds

By UniProt entry, the sequences of proteins in these tests, tags left out.
UniProt I6X8D2, whole entry: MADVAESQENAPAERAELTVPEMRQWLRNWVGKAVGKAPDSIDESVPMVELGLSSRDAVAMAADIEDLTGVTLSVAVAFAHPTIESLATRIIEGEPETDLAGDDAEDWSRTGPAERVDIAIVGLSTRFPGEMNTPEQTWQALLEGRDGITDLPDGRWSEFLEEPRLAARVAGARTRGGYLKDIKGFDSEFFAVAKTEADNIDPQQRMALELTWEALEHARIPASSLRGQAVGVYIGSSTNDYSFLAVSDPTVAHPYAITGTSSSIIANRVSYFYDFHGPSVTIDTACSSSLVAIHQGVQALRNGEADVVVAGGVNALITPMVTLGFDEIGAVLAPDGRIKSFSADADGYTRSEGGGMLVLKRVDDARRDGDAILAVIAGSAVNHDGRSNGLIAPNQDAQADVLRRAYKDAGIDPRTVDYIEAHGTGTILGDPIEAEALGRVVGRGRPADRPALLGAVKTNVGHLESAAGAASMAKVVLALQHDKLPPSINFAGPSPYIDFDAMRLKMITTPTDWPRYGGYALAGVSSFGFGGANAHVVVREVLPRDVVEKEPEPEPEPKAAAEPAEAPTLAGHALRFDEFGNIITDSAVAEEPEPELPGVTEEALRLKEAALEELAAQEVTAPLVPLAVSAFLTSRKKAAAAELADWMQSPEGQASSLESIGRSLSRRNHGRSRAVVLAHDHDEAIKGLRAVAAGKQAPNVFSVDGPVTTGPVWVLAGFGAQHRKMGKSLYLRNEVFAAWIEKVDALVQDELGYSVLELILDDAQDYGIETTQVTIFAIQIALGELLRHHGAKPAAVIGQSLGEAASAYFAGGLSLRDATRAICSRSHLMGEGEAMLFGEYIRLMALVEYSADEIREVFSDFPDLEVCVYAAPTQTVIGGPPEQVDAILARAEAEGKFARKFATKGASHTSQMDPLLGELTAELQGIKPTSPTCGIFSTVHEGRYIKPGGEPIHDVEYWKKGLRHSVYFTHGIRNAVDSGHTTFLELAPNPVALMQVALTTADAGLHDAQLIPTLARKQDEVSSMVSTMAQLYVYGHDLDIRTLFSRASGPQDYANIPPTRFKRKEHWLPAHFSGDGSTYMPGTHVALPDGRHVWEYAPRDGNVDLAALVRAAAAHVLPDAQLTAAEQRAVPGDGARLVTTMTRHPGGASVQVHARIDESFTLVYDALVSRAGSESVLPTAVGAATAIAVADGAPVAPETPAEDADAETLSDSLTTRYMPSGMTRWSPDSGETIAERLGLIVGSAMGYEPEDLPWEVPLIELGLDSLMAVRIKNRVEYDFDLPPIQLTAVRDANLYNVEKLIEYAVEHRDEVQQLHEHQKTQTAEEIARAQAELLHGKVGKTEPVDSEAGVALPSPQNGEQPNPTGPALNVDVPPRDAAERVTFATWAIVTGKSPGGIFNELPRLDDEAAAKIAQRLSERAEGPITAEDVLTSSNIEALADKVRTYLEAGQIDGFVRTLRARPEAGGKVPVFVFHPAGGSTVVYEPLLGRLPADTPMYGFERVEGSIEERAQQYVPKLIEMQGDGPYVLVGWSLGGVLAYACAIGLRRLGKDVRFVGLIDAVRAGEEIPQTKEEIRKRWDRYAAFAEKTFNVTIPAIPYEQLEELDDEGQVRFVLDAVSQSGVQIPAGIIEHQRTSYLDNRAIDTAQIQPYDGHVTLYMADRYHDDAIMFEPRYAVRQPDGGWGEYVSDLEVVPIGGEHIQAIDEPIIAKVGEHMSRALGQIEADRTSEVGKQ
UniProt P9WNZ1, whole entry: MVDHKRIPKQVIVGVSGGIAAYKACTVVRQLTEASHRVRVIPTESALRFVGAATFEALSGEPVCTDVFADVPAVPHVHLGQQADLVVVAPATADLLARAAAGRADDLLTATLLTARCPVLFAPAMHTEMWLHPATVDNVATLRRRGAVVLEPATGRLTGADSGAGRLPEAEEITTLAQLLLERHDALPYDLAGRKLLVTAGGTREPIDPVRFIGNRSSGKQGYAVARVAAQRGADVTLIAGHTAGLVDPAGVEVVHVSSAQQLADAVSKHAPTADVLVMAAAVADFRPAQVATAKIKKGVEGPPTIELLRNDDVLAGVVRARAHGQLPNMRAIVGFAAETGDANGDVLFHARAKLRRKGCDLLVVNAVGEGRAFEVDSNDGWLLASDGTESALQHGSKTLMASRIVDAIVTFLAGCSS
UniProt P9WPC5, whole entry: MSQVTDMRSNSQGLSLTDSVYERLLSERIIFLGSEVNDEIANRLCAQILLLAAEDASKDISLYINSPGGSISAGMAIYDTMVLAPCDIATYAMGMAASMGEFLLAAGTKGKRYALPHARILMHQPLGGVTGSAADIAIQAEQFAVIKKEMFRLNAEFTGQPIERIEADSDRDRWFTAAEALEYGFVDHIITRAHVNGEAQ
UniProt P9WPC3, whole entry partner: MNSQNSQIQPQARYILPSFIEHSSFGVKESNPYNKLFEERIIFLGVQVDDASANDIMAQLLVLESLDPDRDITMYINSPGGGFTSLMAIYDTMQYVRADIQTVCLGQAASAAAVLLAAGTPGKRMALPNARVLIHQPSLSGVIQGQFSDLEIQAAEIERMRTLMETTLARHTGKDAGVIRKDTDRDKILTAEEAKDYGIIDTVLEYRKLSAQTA
UniProt P9WFT3, whole entry: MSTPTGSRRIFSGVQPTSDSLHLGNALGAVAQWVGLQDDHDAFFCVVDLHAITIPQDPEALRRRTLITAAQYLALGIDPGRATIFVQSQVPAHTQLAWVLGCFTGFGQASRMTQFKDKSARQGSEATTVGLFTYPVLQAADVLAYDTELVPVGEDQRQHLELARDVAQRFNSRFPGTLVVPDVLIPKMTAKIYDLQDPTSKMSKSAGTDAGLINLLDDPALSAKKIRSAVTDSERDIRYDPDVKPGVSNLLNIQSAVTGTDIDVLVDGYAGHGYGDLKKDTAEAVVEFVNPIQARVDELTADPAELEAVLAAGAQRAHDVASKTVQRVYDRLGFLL

The values are deposited in ChEMBL (CHEMBL3988442, “University of Dundee, Small-Polar-MMV Screening Library” (2021)).

Values are the deposited “Percent Effect”, in %.
How 0% and 100% were set is not recorded. Most values in the screen are low, and negative values occur.
Compounds were drawn at random from those tested, without regard to their results.
Two or more numbers in one place are separate tests of the same structure; such repeats can differ widely.
A dash means the value is not listed here; it may have been measured.

A: 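Polyketide synthase Pks13, Mycobacterium tuberculosis (UniProt I6X8D2). Enzyme assay of the thioesterase domain of polyketide synthase 13; the read-out is not stated. Tested at 30 µM. The record gives no direction; the compounds picked for IC50 retests had high values, so higher reads as stronger inhibition. Of about 67,000 compounds tested this way, about 300 (0.46%) reached 50% or more in at least one test.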
B: 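Assay of Toxoplasma gondii numbers, read through their beta-galactosidase reporter with a colour substrate. Tested at 10 µM. The record gives no direction; the compounds picked for IC50 retests had high values, so higher reads as fewer parasites. About 67,000 compounds were tested under these conditions; 0.38% (about 260) showed 50% or more at least once.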
C: 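Coenzyme A biosynthesis protein CoaBC, Mycobacterium tuberculosis (UniProt P9WNZ1). Enzyme assay of CoaBC with a phosphate dye (Biomol Green) read at 650 nm. Compounds at 30 µM. Higher reads as stronger inhibition, judged from the few compounds that gave an IC50. Most strong results did not repeat in a second test. Size under these conditions: about 67,000 compounds, about 40 of them at 50% or above in at least one test.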
D: 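Protease assay of ClpP1P2, read by the AMC dye that it sets free. Target: ClpP1P2, Mycobacterium tuberculosis (UniProt P9WPC5 and UniProt P9WPC3). Compounds at 50 µM. Direction is inferred from only a few compounds that gave an IC50; most scored high, so higher reads as stronger inhibition. Most other retested compounds had strongly negative values. Of about 69,000 compounds tested this way, about 10 (0.015%) reached 50% or more in at least one test.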
E: 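Cell assay of Leishmania donovani living inside macrophages; the read-out is not stated. Tested at 30 µM. Higher reads as stronger inhibition (inferred: compounds with an IC50 in retests scored well above the rest). Size under these conditions: about 69,000 compounds, about 1,000 of them at 50% or above in at least one test.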
F: 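Tryptophan-tRNA ligase, Mycobacterium tuberculosis (UniProt P9WFT3). Enzyme assay of tryptophanyl-tRNA synthetase; the read-out is not stated. Tested at 10 µM. Direction is not recorded; retested compounds ran higher, which suggests that high means inhibition. Of about 65,000 compounds tested this way, about 64 (0.098%) reached 50% or more in at least one test.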

SMILES,A,B,C,D,E,F
O=C(c1cc[nH]n1)N1CCCC1c1cc(Nc2ccccn2)n[nH]1 (stereo not drawn),27.46%,9.176%,9.023%,-11.74%,4.461%,-5.961%
Cc1cc(CNc2ccc(C(F)(F)F)cc2)no1,43.05%,-18.02%,-0.9926%,-7.289%,11.81%,3.744%
CCN1CC(C(=O)N(C)Cc2cc3cc(F)ccc3[nH]2)CC1=O (stereo not drawn),7.414%,7.918%,-1.794%,-6.918%,16.63%,-0.4881%
Cc1nc(CN(CCS(C)(=O)=O)C(C)(C)C)no1,3.992%,9.645%,0.3802%,7.415%,-19.89%,0.6571%
COc1cc(C2(C(=O)N3CCCC(n4cncn4)C3)CC2)ccc1C (stereo not drawn),-5.003%,-5.111%,0.6386%,-17.84%,12.69%,-2.568%
CCN(CC)Cc1cn2c(n1)CN(C(=O)c1cnccn1)CC2.O=C(O)C(F)(F)F,-,3.927%,-,-,-4.878%,-
Cc1ccsc1[C@@H]1CCN(C(=O)CCc2cc(O)no2)C[C@H]1O,-15.68%,-5.124%,4.405%,4.626%,15.11%,-0.4016%
COc1cccc(-n2nc(C(C)=O)c(C(C)=O)c2C)c1,-2.081%,5.791%,-0.2358%,-0.675%,-4.859%,0%
CCn1ncnc1CN1CCc2[nH]cnc2C1c1ccccn1 (stereo not drawn),-14.98%,-2.781%,-7.025%,-10.27%,-22.81%,14.6%
[H][C@]12CCCC[C@]1([H])N(C(=O)C1CCOCC1)CC[C@@]2(O)c1ccccc1,-,-7.616%,-,-,35%,-
COCc1ncc(-c2nccn2CCn2cnnc2)cn1,-6.271%,15.74%,4.132%,15.61%,0.5972%,7.783%
Cn1cc(CN2CCc3c(nc(-c4ccccn4)[nH]c3=O)C2)cn1,-8.184%,2.052%,3.368%,3.32%,19.2%,2.643%
COc1ccc(F)cc1C(=O)N1C[C@H]2C[C@H](OC)C[C@H]2C1,12.5%,-,1.196%,-7.094%,-,-4.427%
CCOC(=O)C1CN(C(=O)COC)Cc2ncn(CC)c21 (stereo not drawn),-8.604%,-3.646%,-1.434%,2.13%,24.59%,-2.562%
O=C(NCCc1nnc2n1CCC2)NCC1(c2cccc(F)c2)CC1,-30.14%,0.9553%,3.104%,-3.478%,17.22%,-6.038%
CC(=O)N1CCCN(CCn2nc3ccccn3c2=O)CC1,20.95%,-4.818%,4.685%,10.72%,45.73%,-3.592%
CN(C)S(=O)(=O)c1ccc(=O)n(CC2CCCCO2)c1 (stereo not drawn),-34.29%,-1.388%,2.893%,-11.72%,-3.014%,1.633%
Cc1cccnc1N1CC2(CCN(Cc3cnn(C)c3)C2)C1,-21%,-,2.703%,-4.578%,-,-8.43%
Cc1nc(CCNC(=O)CC2CCN(C(C)C)CC2)sc1Cl,23.1%,5.023%,2.122%,8.611%,-41.44%,-1.876%
CCCN1CCc2c(C(=O)N(C)Cc3ccccn3)nn(C)c2C1,-4.858%,-,-,-6.356%,-,-1.453%
CN(Cc1nccn1C)C1CCCN(Cc2noc(C3CC3)n2)C1 (stereo not drawn),-16.2%,-16.62%,0.7874%,-10.83%,-2.746%,0.6877%
O=C(O)C(F)(F)F.[H][C@]12CCN(Cc3ccc(CC)o3)[C@@]1([H])CCC(=O)N2,-,19.86%,-,-,8.459%,-
O=C(c1ccccc1)N1CCC[C@]2(C[C@@H](OCc3ccccn3)CO2)C1,-4.624%,-,5%,0.4243%,-,-1.876%
CN(C)[C@H]1C[C@@H](Cc2cc(-c3ccc(F)cc3)on2)C1(C)C,-26.61%,25.11%,-4.912%,-2.547%,26.48%,-5.721%
O=C(c1cc(Cn2ccc3ccccc32)[nH]n1)N1CCCCC1CO (stereo not drawn),-7.035%,19.62%,0%,-6.074%,-5.081%,2.13%
Cc1ncc(CNC(=O)CCc2c(C)noc2C)c(C2CCCN2C)n1 (stereo not drawn),-,-9.778%,2.663%,-2.3%,14.98% & 10.22%,-
Cc1ccc(NC2CCN(C(=O)c3cccnc3N(C)C)CC2)nn1,-17.08%,4.656%,1.591%,-21.88%,-9.798%,24.14%
Clc1ccc2[nH]c3c(c2c1)CCCC3c1nn[nH]n1 (stereo not drawn),18.59%,3.204%,2.169%,-7.095%,-10.65%,6.278%
O=C(NCCN1CCOCC1)c1cc(-c2ccc(Cl)s2)[nH]n1,7.981%,52.66%,3.182%,1.737%,-5.905%,-2.082%
[H][C@@]12CCC(=O)N(CCc3c[nH]cn3)[C@]1([H])CCN(c1ncc(F)cn1)C2,-,2.01%,-,-,2.271%,-
c1ccc(CN2CCN(Cc3cscn3)CC2)cc1,-11%,-3.012%,6.667%,6.345%,9.666%,2.267%
COCC(=O)N1CCC2(CCC(C(=O)N3CCCC3)O2)CC1 (stereo not drawn),-59.2%,-8.891%,-0.5089%,-3.696%,-0.8026%,-3.961%
CC(C)(C)OC(=O)N1CC(CC(=O)NCc2ccsc2)C1,-17.36%,1.592%,0.7317%,-1.739%,-33.02%,-0.9029%
CN(c1ccncn1)C1CC2(CCN(C(=O)c3ccsc3)C2)C1 (stereo not drawn),7.936%,-5.518%,4.319%,8.921%,21.61%,3.417%
Cc1nnsc1-c1nnc2sc(C3CCC3)nn12,-23.12%,18.16%,4.427%,1.56%,11.99%,5.421%
O=C(N[C@@H]1CC[C@@H](N2CCCC2)[C@@H]1O)c1cc2cccc(F)c2[nH]1,-3.859%,-,10.21%,13.1%,21.72%,0.6114%
CCn1cc(CN2CCCN(C(=O)c3ccc(C#N)cc3)CC2)cn1,11.09%,-6.02%,0.5249%,-10.38%,39.87%,-6.418%
Cc1ncc(CNC(=O)CCc2cccc(F)c2)c(C2CCCN2C)n1 (stereo not drawn),-8.912%,26.97%,-6.111%,-5.847%,4.858%,4.933%
COc1nn(C)cc1C(=O)N1CCC(c2nnc(-c3ccsc3)o2)CC1,-26.97%,1.523%,1.976%,-13.85%,-4.571%,3.393%
COc1cc(OC)c(CNC(=O)NCc2ccc(C#N)cc2)c(OC)c1,-31.45%,5.783%,-21.38%,-5.119%,17.12%,1.008%
CN(C)[C@@H]1CCN(C(=O)Cc2cccs2)[C@H]1Cc1ccncc1,-4.453%,-,1.5%,8.24%,-,-2.815%
CCS(=O)(=O)N1CCC(c2nc(C)c(C)c(N3CCCC3)n2)CC1,4.664%,-10.23%,0.5256%,28.52%,2.31%,-3.594%
Cc1noc(C)c1CN(C)C(=O)c1nc(N2CCCC2)ncc1Cl,3.817%,-41.91%,5.839%,-2.014%,-8.961%,-3.849%
N#Cc1ccc2c(c1)CN(C(=O)c1nc[nH]n1)C2c1cnco1 (stereo not drawn),-22.2%,2.751%,-,3.01%,-8.728%,-0.9709%
Cc1nc(N(C)C)nc(C)c1NS(=O)(=O)c1ccccc1Cl,-1.807%,1.097%,-4.153%,4.674%,-3.227%,-2.75%
COc1ncc(C2(O)CCN(Cc3cccs3)CC2)c(OC)n1.Cl,-,0.3406%,-,-,17.06%,-
CN1CCCN(C(=O)c2ccn3ccnc3c2)CC1,-5.647%,-5.626%,-5.825%,3.968%,-51.12%,-0.9412%
O=C(O)C(F)(F)F.[H][C@@]12CCCO[C@]1([H])[C@@H](OCc1ccncc1)CN2C(=O)CC1CCCC1,-,-2.876%,-,-,35.14%,-
Cc1cc(C(N)=O)c2c(Br)cccc2n1,4.318%,15.08%,5.216%,-6.04%,-10.76%,-5.791%
O=C(c1cnco1)N1CCCC(Cc2nccs2)C1 (stereo not drawn),-20.36%,-11.78%,0.3927%,2.578%,19.04%,-2.583%
CCN(CC)[C@@H]1CN(Cc2ccc(C)o2)[C@@H]2CCCO[C@H]12,-21.57%,-,-,0.2878%,-,-1.647%
COCCN1CCN(Cc2c(C)noc2C)Cc2ccc(C)nc21.O=C(O)C(F)(F)F.O=C(O)C(F)(F)F,-,-8.615%,-,-,10.02%,-
CCOc1cccc(C(=O)N2CCC3(CC2)[C@H](O)C[C@@H]3OC)c1,-17.01%,11.48%,11.9%,-6.783%,6.967%,3.604%

6 of the entries, repeated:

{"smiles": "COc1nn(C)cc1C(=O)N1CCC(c2nnc(-c3ccsc3)o2)CC1", "A": -26.97, "B": 1.523, "C": 1.976, "D": -13.85, "E": -4.571, "F": 3.393}
{"smiles": "O=C(c1ccccc1)N1CCC[C@]2(C[C@@H](OCc3ccccn3)CO2)C1", "A": -4.624, "C": 5, "D": 0.4243, "F": -1.876}
{"smiles": "CC(=O)N1CCCN(CCn2nc3ccccn3c2=O)CC1", "A": 20.95, "B": -4.818, "C": 4.685, "D": 10.72, "E": 45.73, "F": -3.592}
{"smiles": "O=C(NCCN1CCOCC1)c1cc(-c2ccc(Cl)s2)[nH]n1", "A": 7.981, "B": 52.66, "C": 3.182, "D": 1.737, "E": -5.905, "F": -2.082}
{"smiles": "COCc1ncc(-c2nccn2CCn2cnnc2)cn1", "A": -6.271, "B": 15.74, "C": 4.132, "D": 15.61, "E": 0.5972, "F": 7.783}
{"smiles": "Cc1ccc(NC2CCN(C(=O)c3cccnc3N(C)C)CC2)nn1", "A": -17.08, "B": 4.656, "C": 1.591, "D": -21.88, "E": -9.798, "F": 24.14}